{"source": "patent US20150231199A1", "about": "“PEPTIDES AND THEIR USES” (priority 2012, published 2015)", "test_system": "red blood cells (RBCs) of New Zealand white rabbits", "type": "cell-based, rabbit", "protocol": "Fresh red blood cells (RBCs) of New Zealand white rabbits were used for this experiment. The RBCs obtained were centrifuged at 3000 rpm for 10 min. Supernatant was removed and washed twice with sterile PBS Buffer (20 mM, 100 mM NaCl, pH 7). The RBCs were further diluted to 8% stock solution in PBS. Peptides were dissolved in PBS with desired stock concentrations. When compounds were mixed with RBCs, desired concentration of 4% RBCs was obtained. For C14V2D and C16V2D, they were dissolved in Dimethylformamide ([…]; DMF) with desired stock concentrations. When compounds were mixed with RBCs, desired concentration of 4% RBCs and 0.5% DMF was obtained. DMF concentration of <1% was used as it had negligible hemolytic activity on RBCs. The mixtures were added to 1.5 mL centrifuge tubes and incubated at 37° C. for 1 h. After incubation, the blood was centrifuged at 3000 rpm for 3 min at 4° C. 100 μL of the supernatant was transferred into transparent 96-well plate. The absorbance was measured at 576 nm using a microplate reader (TECAN Infinite 200M Pro). 2% Triton X-100 was used as positive control. PBS was used as negative controls. The amount of hemoglobin released was calculated using the following equation: […]", "note": "Positions of bridges follow the written chain, without caps; N, C: chain ends. Residues, ends and D or L forms follow the SMILES beside them. Chains are numbered I, II in the order given. *: point of attachment. Palmitoyl = CCCCCCCCCCCCCCCC(=O)*; Myristoyl = CCCCCCCCCCCCCC(=O)*"}
{"smiles": "CCCCCCCCCCCCCC(=O)N[C@@H](CCCNC(=N)N)C(=O)NCC(=O)N[C@@H](CCCNC(=N)N)C(=O)N[C@@H](CCCCN)C(=O)N[C@H](C(=O)N[C@H](C(=O)N[C@@H](CCCNC(=N)N)C(=O)N[C@@H](CCCNC(=N)N)C(=O)NCCCC[C@H](NC(=O)[C@H](CCCNC(=N)N)NC(=O)[C@H](CCCNC(=N)N)NC(=O)[C@@H](NC(=O)[C@@H](NC(=O)[C@H](CCCCN)NC(=O)[C@H](CCCNC(=N)N)NC(=O)CNC(=O)[C@H](CCCNC(=N)N)NC(=O)CCCCCCCCCCCCC)C(C)C)C(C)C)C(=O)N[C@@H](CCCCN)C(=O)O)C(C)C)C(C)C", "note": "[Peptide C14-V2D, (C13H23—CO—NH—RGRKVVRR)2KK] (I: Myristoyl-RGRKVVRRKK-OH / II: Myristoyl-RGRKVVRR; amide I:9-II:C; N-terminus and C-terminus assumed)", "values": [{"measurement": "Selectivity = HC10/MIC", "value": "10-81"}]}
{"smiles": "CCCCCCCCCCCCCCCC(=O)N[C@@H](CCCNC(=N)N)C(=O)NCC(=O)N[C@@H](CCCNC(=N)N)C(=O)N[C@@H](CCCCN)C(=O)N[C@H](C(=O)N[C@H](C(=O)NCCCC[C@H](NC(=O)[C@@H](NC(=O)[C@@H](NC(=O)[C@H](CCCCN)NC(=O)[C@H](CCCNC(=N)N)NC(=O)CNC(=O)[C@H](CCCNC(=N)N)NC(=O)CCCCCCCCCCCCCCC)C(C)C)C(C)C)C(=O)N[C@@H](CCCCN)C(=O)O)C(C)C)C(C)C", "note": "[Peptide C16-V2D, (C15H31—CO—NH—RGRKVV)2KK] (I: Palmitoyl-RGRKVVKK-OH / II: Palmitoyl-RGRKVV; amide I:7-II:C; C-terminus assumed)", "values": [{"measurement": "Selectivity = HC10/MIC", "value": "1-2"}]}
